PubChem BioAssay AID720505 – Drosophila RNAi Screening Center | 2013

Assay: 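Fly regulators or components of the CRAC channel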 (primary screen)
Cells: Drosophila S2R+ cells
Knock-down reagent: long dsRNA against Drosophila genes
Challenge: thapsigargin (2 µM) in calcium-free buffer to empty internal stores, then 2 mM calcium added back
Measurement: 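Fluo-4 signal in 384-well plates read on a FLIPR after thapsigargin (2 µM, calcium-free) store depletion and 2 mM calcium add-back; unnormalised mean endpoint per well; screen run twice, selected wells retested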
Reading the numbers: calcium signal and retest calcium signal: higher = more calcium entry after store depletion
Call rule: 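About 1500 genes called as lowering calcium entry, by varying amounts, judged against per-plate control wells with STIM1 as positive and Rho1 as negative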
Meaning of the calls: active = called as lowering calcium entry; inactive = not called
The screen tested about 20,000 reagents; shown is a random part of those that have a named target and a result. Of all reagents, about 2,100 (10%) are marked active. 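Raw plate signals without normalisation; calls rest on control-based scores that were not deposited; replicate 2 separates called from uncalled poorly.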 Entries without a mark were called inactive. Names joined by + are all predicted targets of the reagent. No sequences are given here. The record does not give: the amount of reagent, the time to read-out.

target gene | DRSC id | calcium signal, replicate 1 | calcium signal, replicate 2 | retest calcium signal, replicate 1 | retest calcium signal, replicate 2
CG31636 | DRSC02276 | 110 | 131 | – | –
ATPsynE | DRSC15476 | 107 | 142 | – | –
p24-1 | DRSC19827 | 93.2 | 93.3 | – | –
mmy | DRSC02002 | 164 | 256 | – | –
tra | DRSC11405 | 106 | 187 | – | –
Pglym87 | DRSC15252 | 119 | 123 | – | –
CG5746 | DRSC15868 | 194 | 227 | – | –
UbcE2M | DRSC10828 | 83.8 | 84.4 | – | –
Flad1 | DRSC19898 | 171 | 142 | – | –
Pdhb | DRSC14420 | 125 | 143 | – | –
Nop17l | DRSC06556 | 157 | 157 | – | –
HDAC4 | DRSC19780 | 135 | 95.2 | – | –
CG5002 | DRSC06911 | 157 | 113 | – | –
Hyccin | DRSC06983 | 115 | 92.6 | – | –
hd | DRSC12316 | 108 | 139 | – | –
CG5282 | DRSC11775 | 112 | 93.5 | – | –
CG6225 | DRSC15996 | 142 | 73.4 | – | –
CG7423 | DRSC20044 | 188 | 97.6 | – | –
lncRNA:CR34047 | DRSC07857 | 5604 | 131 | – | –
lncRNA:CR34047 | DRSC21689 | 115 | 111 | – | –
ocn | DRSC17020 | 198 | 143 | – | –
CG15922 | DRSC15128 | 126 | 197 | – | –
Or69a | DRSC11243 | 67.1 | 87.7 | – | –
CG11099 | DRSC06034 | 143 | 155 | – | –
CG14662 + asRNA:CR43478 | DRSC12248 | 108 | 104 | – | –
ssx | DRSC18492 | 120 | 151 | – | –
CG31111 | DRSC14649 | 135 | 124 | – | –
Srp54k | DRSC11289 | 66.7 | 92.4 | – | –

5 of these entries, reformatted.
{"target gene":"Hyccin","DRSC id":"DRSC06983","calcium signal, replicate 1":115,"calcium signal, replicate 2":92.6}
{"target gene":"hd","DRSC id":"DRSC12316","calcium signal, replicate 1":108,"calcium signal, replicate 2":139}
{"target gene":"CG5282","DRSC id":"DRSC11775","calcium signal, replicate 1":112,"calcium signal, replicate 2":93.5}
{"target gene":"CG6225","DRSC id":"DRSC15996","calcium signal, replicate 1":142,"calcium signal, replicate 2":73.4}
{"target gene":"CG7423","DRSC id":"DRSC20044","calcium signal, replicate 1":188,"calcium signal, replicate 2":97.6}

Continued.
target gene | DRSC id | calcium signal, replicate 1 | calcium signal, replicate 2 | retest calcium signal, replicate 1 | retest calcium signal, replicate 2
CG14391 | DRSC14850 | 165 | 103 | – | –
mrt | DRSC15484 | 153 | 134 | – | –
CG11929 | DRSC00339 | 105 | 118 | – | –
AstA-R1 | DRSC17727 | 67.6 (active) | 179 | – | –
tyf | DRSC18382 | 178 | 84.8 | – | –
CG6220 | DRSC06969 | 129 | 218 | – | –
CG4229 | DRSC10407 | 90.2 | 95.3 | – | –
CG2812 | DRSC04319 | 126 | 192 | – | –
CG10734 | DRSC05998 | 142 | 167 | – | –
Snx27 | DRSC17786 | 270 | 177 | – | –
Snx27 | DRSC18282 | 243 | 152 | – | –
Snx27 | DRSC18284 | 201 (active) | 161 | – | –
CG12689 | DRSC17879 | 64.6 (active) | 266 | – | –
alphaTry | DRSC07577 | 104 | 231 | – | –
CG3036 | DRSC00260 | 97.2 | 162 | 89.3 | 80.1
CG3036 | DRSC00562 | 59.8 (active) | 163 | – | –
CG12439 | DRSC02168 | 106 | 156 | – | –
NimB2 | DRSC22645 | 115 | 150 | – | –
kmg | DRSC02829 | 67.4 (active) | 88.8 | – | –
CG11382 | DRSC18624 | 98 (active) | 116 | – | –
CG5390 | DRSC02855 | 198 | 156 | – | –
atms | DRSC12310 | 60.4 (active) | 105 | – | –
emei | DRSC10897 | 131 | 98.1 | 5879 | 86.8
emei | DRSC22684 | 43 (active) | 111 | – | –
Jheh1 | DRSC06529 | 79.8 (active) | 106 | – | –
Ipo9 | DRSC16813 | 100 | 112 | – | –
CG15394 | DRSC00408 | 175 | 143 | – | –
CG14691 | DRSC14914 | 163 | 72.5 | – | –
ng4 | DRSC18805 | 82.5 (active) | 130 | – | –
dor | DRSC18765 | 88.6 | 142 | – | –
CG11588 | DRSC09846 | 68.3 | 64.5 | – | –
CG13360 | DRSC18536 | 65.5 (active) | 142 | 68.6 | 99.2
RIOK2 | DRSC14413 | 252 | 123 | – | –
AIMP1 | DRSC07118 | 113 | 98.6 | – | –
CG3760 | DRSC04415 | 184 | 156 | – | –
CG34202 | DRSC05907 | 80 | 109 | – | –
Vps24 | DRSC12332 | 124 | 101 | 112 | 131
CG3149 | DRSC17732 | 94.7 | 75.3 | – | –
Cchl | DRSC15949 | 105 | 206 | – | –
Slc25A46a | DRSC20125 | 100 | 134 | – | –
CG9855 | DRSC12344 | 67.6 (active) | 133 | 153 | 145
Or2a | DRSC18690 | 120 | 110 | – | –
Gcn2 | DRSC16678 | 71.4 | 87.5 | – | –
TppII | DRSC07565 | 138 | 95.3 | – | –
CG13738 | DRSC10065 | 113 | 110 | – | –
Orc1 | DRSC07496 | 85.3 | 148 | – | –
CG14538 (retired record) | DRSC02396 | 78 (active) | 81.2 | – | –
mop | DRSC11065 | 90.6 | 106 | – | –
Ccdc58 | DRSC10218 | 99.4 | 77.2 | – | –
Set1 | DRSC20930 | 58 (active) | 183 | – | –
Set1 | DRSC20931 | 71 (active) | 204 | – | –
CG6696 | DRSC20004 | 76.2 | 93.6 | – | –
Ir48c | DRSC06154 | 79.9 | 202 | – | –
Ggamma1 | DRSC07435 | 190 | 114 | – | –
CG4629 | DRSC00659 | 164 | 122 | – | –
